According to US20160046678A1 (ZYNGENIA, published 2016):
Results are given in words; binding and its absence hold for the method and conditions named. Some binding calls cover weakened binding; strength is not graded here.

T1: Angiopoietin-2 (Ang2) (human, UniProt O15123 19-496, biotin label in Examples 22-24)
T1 construct: also called rhAng2; recombinant Ang2
T1 sequence (looked up): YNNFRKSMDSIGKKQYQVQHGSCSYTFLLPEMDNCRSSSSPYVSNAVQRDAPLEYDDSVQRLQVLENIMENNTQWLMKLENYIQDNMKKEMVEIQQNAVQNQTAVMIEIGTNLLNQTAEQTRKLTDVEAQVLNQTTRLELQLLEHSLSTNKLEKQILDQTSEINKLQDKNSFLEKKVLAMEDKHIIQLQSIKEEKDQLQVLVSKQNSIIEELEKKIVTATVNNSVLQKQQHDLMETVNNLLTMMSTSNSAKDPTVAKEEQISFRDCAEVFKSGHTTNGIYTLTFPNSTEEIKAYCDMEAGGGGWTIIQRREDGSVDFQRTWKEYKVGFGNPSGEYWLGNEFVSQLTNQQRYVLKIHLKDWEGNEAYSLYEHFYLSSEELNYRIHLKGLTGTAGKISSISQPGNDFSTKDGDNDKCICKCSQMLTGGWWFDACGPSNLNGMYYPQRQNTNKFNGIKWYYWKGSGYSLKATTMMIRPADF


Each binder was assayed against T1, Angiopoietin-2 (Ang2) (assay: Example 48, method not detailed).

| binding | Binder |
| --- | --- |
| binds | KCPFLPDWVSCHDYSQKY [ANG266] |
| binds | KCPLLPDWVSCHEWNIRE [ANG242] |
| binds | MLMKCPLLPDWASCDVWL [ANG252] |
| binds | ATSKCPLLPDWVSCDEHL [ANG239] |
| binds | MNVKCPLLPDWVSCLDYL [ANG250] |
| binds | VGSLCPLLPDWASCHEWL [ANG224] |
| binds | RCPFLPDWLSCNEWLMIE [ANG225] |
| binds | KCPLLPDWASCDQWNEWN [ANG259] |
| binds | EPPKCPMLPDWVSCDTWL [ANG247] |
| binds | EISKCPLLPDWVSCYQWL [ANG249] |
| binds | LGWTELKCPLLPDWATCN [ANG220] |
| binds | DVPHQLNCPLLPDWAACL [ANG248] |
| binds | KCPLLPDWFSCHEYQEMF [ANG245] |
| binds | SSGKCPLLPDWKSCDEWL [ANG241] |
| binds | WYRKCPLLPDWVSCHEWY [ANG228] |
| binds | KCPLLPDWASCESWLEVR [ANG231] |
| binds | KCPLLPDWVSCDMYLERQ [ANG258] |
| binds | KCPLLPDWVTCDEFQGMQ [ANG233] |
| binds | LSTKCPLLPDWVSCHEWL [ANG219] |
| binds | KCPLLPDWVSCETYLNGD [ANG257] |
| binds | LCPRLPDWVSCHTWLERY [ANG218] |
| binds | KCPLLPDWVSCHEWNVWL [ANG222] |
| binds | LMHECPLLPDWVSCHTFL [ANG256] |
| binds | HLDKCPLLPDWISCTDWL [ANG232] |
| binds | TTLNCPLLPDWLTCQEFL [ANG229] |
| binds | YVSKCPFLPDWVSCHGWL [ANG263] |
| binds | KCPLLPDWVSCHTYLEES [ANG246] |
| binds | KCPLLPDWISCAQWQRAV [ANG223] |
